The campaign covered roughly 52,000 sequences. About 210 (0.4%) were called active.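 Rule for the calls: active = gene whose silencing raises cell survival under the drug, median off-target-corrected z-score across its silencing RNAs 2 or more; inactive = the rest.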 The list shows a part of the results.

The assay in a line: Resistance to Poly (ADP-Ribose) Polymerase inhibitor: Gene Identification via Genome-wide siRNA Screen. The conditions noted are these: mouse BRCA2 R2336H ES cells, olaparib, CellTiter-Glo viability; hits give high values. In outline:
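Genome-wide siRNA screen (3 siRNAs/gene, 20 nM) in mouse ES cells carrying hypomorphic BRCA2 R2336H; olaparib 500 nM added 48 h post-transfection, CellTiter-Glo viability 72 h later. Normalized to plate-median negative control; MAD z-scores, gene median, seed-adjusted.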
(Cellular ATP, detected with luciferase, serves as a proxy for viable cell number.)
For the sequence GGUCUUGUUCUCAUCAACATT against Ndrg2, the z-score was inactive: 1.91. GGCAGGUGACUCCAAAUGUTT against Hdc: the z-score is inactive: -0.0551. In the case of GCGACCUUUAGUACACGUCTT against Cklfsf1, the z-score is inactive: 0.672. Then GCCACAUCGUAGACAAGUATT against Zfp41, with inactive: -0.832; and GGGUUUGUGGGAUACAAUCTT against Smarce1, with inactive: -1.77. GCUUUAUAAAGUGGGUAGATT against Bub1: the z-score was inactive: 0.0964. For CGCAGAAAGAGCAUCAGAUTT against AU019532, the z-score was inactive: -0.875.

Take “GGACACCAUCAAUUGAUUATT against 0610012K18Rik”: the z-score was inactive: 0.171. With GGUACUCACCGGAUACCAATT against Olfr512 the figure was inactive: -0.24; with GCAGCAUCAGCAUUUAUAATT against Nmur2, inactive: 1.22; with GGCCCUGAGAAGAAAACUATT against Syngr3, inactive: 0.476. With “GGUCAUCAAUCUCACCACUTT against B930076A02” the figure was inactive: -0.768. Then GGAAAUGCCAUAGUCCUAUTT against Mrgprb5, with inactive: -0.87; and GGAAGCUCGACGGAAGUUCTT against BC033915, with inactive: -1.09.

As for GGCACGACUACAUAUUUAATT against Wdfy3, the z-score is inactive: 1.18.

With CCUUUCUUCCUAGUUCUUCTT against Olfr38, the z-score is inactive: -0.287.

Consider GGUUAUCACAGAAGACUUATT against Clic6, for which the z-score was inactive: -0.723. “GGAUUUUAUGAACAUUUGCTT against 2610037M15Rik”: the z-score is inactive: 0.625.

GGUGGUCAUUUAUUCAUGUTT against Daf2: the z-score is inactive: 0.675. Then GCACAUUGCUCACAAGCAUTT against MGC107415, with inactive: 0.584. On to UAUGACUCCACUCUUCUCUTT against Olfr1158, for which the z-score is inactive: -0.74. Turning to CGCAGACAAGCAAGAAGUATT against Olfr735, the z-score was inactive: -1.32.

Consider GGAUGCAUAUUUUAGAAGATT against Mkl2, for which the z-score was inactive: 0.228. With GCGUGGAAGGUCUGAACACTT against Arfgap3 the figure was inactive: 0.421; with GCGUGCUUAUGAACAUAGUTT against Mint, inactive: -0.0656; with GGAGACAAAUAUGAUGUAUTT against Hook1, inactive: -1.94. Consider GCCACACCAAUAGAAGUGUTT against Csnk1g3, for which the z-score was inactive: 0.184. Regarding CCUCUGAGUGAUACACUGUTT against Klk9, the z-score is inactive: -0.266. On to CCGUGGUUAUUUAGGACAATT against Rnf33, for which the z-score was inactive: -1.29. As for “GGAAUGGUAAUGCUAUUGGTT against 2610033C09Rik”, the z-score is inactive: -1.04.

On to GGAACCUGAUCCACUACUATT against H2-Bl, for which the z-score is inactive: -0.335.

Turning to “GCCCUAGCAAAAUAUGUUUTT against 1700009P03Rik”, the z-score is inactive: 0.439. With GGACAGGACCAAAAGGACUTT against Klk4 the figure was inactive: -0.254. Then GGUAUGUUUUAUCUUGACATT against Olfr851, with inactive: -0.218; and “GCUAGUUACAAGCAAGCAGTT against 1700065O13Rik”, with inactive: 0.219; and GCUUAAGCAGAAUGGUGCUTT against Arid3b, with inactive: 2.25. For the sequence GGUGGAGAACUAUUACAGCTT against Myf5, the z-score was inactive: 0.18. Then CCUACAUUCCAUUUUAAUGTT against Hydin, with inactive: -0.178. With GGAAUUUGAUUCUGAAGAATT against Gmnn the figure was inactive: -1.45. As to GGAUAACGUAAUGAAGAUCTT against Fgfr1, the z-score is inactive: 1.57. Then GGCACAGCAGUCUUGAGCUTT against Retn, with inactive: -0.00451; and GGAUUCAAAUGUUCAAAGGTT against Il27, with inactive: -0.42; and GGCAAUGGAGAGAGAGAUGTT against AV312086, with inactive: -0.714. Then CCACUCACUUUCGUAUCUUTT against AI427100, with inactive: 0.862; and GCUAUGAACUCCACAUCUATT against Mov10, with inactive: 0.43. With GGGUCUGAUCUGUAAUUCATT against Svs7 the figure was inactive: -0.251; with GGCCAUCAGAGCUACACUUTT against Gpa33, inactive: 0.157; with GGAUUGGAGGUCUUAAAACTT against Mbtps1, inactive: -0.828. Consider “CCCAGUAUGGUCCAUGAAGTT against 4930566A11Rik”, for which the z-score was inactive: 2.09. Consider CGGAUUGAUUUCUGAUGCGTT against Krt2-39, for which the z-score was inactive: -0.934. Then GGAACCAGAGACAUUGUUUTT against Pola2, with inactive: -2.26. Then GGAGAUACGGGACAGAGUGTT against Olfr655, with inactive: -1.65; and CCGUGAAAAAAUUAAACAGTT against Slk, with inactive: 1.4; and GGAACAAAUGUUCGAAAUGTT against Eif4a2, with inactive: 0.734.

For the sequence GCCCGGAAGUUUGUUAAAGTT against Mtrr, the z-score was inactive: 0.168. With GGAGAAUAUCCUCCCAGGATT against Cdca2 the figure was inactive: 0.0564; with GGCAAAUGGGAAGAAUUCCTT against Mep1b, inactive: -0.00969; with GGACCUAAAAAUGGUAUAUTT against Lrp1b, inactive: -2.48. For the sequence GGGCACCUAGUUUCCAUGATT against Cox7b, the z-score is inactive: 2.21. In the case of GGCAAAGACGACCUCUCACTT against BC032925, the z-score is inactive: 1.73. With “GGUAAUGAUUUGUUAACAGTT against 5730446C15Rik” the figure was inactive: -0.674.

GGCAUUCCCAUCAAGAGCATT against Dncl2a: the z-score was inactive: 0.483. Then GGAUCCCAUUAGAAAGAAATT against Cbx2, with inactive: 0.093. Then “GCCUGCUAUUUAAUUCAUATT against B930006L02Rik”, with inactive: 0.0292. Then “GGCGAUAUUCUUAAUUAUCTT against 2210010L05Rik”, with inactive: 0.347. As for GGAAAUAAGACUCAGGUCATT against Gtf2a1, the z-score is inactive: -1.44.

Regarding GCCGAAAUUGUGUCUCUGUTT against Insig1, the z-score was inactive: -0.737.

(Values after PubChem BioAssay AID1347423 (Functional Genomics Laboratory (NCATS/FGL), 2020).)
